Test system: AR2 cells (HepG2-AR2)
Experiment: Alamar Blue (resazurin) post hoc cell viability / cytotoxicity assay in AR2 cells

SMILES: CC(C)(C)c1ccc(O)cc1 [4-tert-Butylphenol]
- hill_tp (Hill model top): 0
- max_med (maximum median response): 11.6734

From paper PMC10112521, “High-throughput AR dimerization assay identifies androgen disrupting chemicals and metabolites” (Frontiers in Toxicology, 2023)
